These are yes or no findings as the source states them, for the method shown. In cells and extracts the contact can be indirect. A yes stands for co-enrichment or nearness to the bait. Other partners may have been found. Sequences can lack the tags named with a protein.

Protein sequences, listed by entry. Tags and fused reporters are not part of them.
UniProt O15265: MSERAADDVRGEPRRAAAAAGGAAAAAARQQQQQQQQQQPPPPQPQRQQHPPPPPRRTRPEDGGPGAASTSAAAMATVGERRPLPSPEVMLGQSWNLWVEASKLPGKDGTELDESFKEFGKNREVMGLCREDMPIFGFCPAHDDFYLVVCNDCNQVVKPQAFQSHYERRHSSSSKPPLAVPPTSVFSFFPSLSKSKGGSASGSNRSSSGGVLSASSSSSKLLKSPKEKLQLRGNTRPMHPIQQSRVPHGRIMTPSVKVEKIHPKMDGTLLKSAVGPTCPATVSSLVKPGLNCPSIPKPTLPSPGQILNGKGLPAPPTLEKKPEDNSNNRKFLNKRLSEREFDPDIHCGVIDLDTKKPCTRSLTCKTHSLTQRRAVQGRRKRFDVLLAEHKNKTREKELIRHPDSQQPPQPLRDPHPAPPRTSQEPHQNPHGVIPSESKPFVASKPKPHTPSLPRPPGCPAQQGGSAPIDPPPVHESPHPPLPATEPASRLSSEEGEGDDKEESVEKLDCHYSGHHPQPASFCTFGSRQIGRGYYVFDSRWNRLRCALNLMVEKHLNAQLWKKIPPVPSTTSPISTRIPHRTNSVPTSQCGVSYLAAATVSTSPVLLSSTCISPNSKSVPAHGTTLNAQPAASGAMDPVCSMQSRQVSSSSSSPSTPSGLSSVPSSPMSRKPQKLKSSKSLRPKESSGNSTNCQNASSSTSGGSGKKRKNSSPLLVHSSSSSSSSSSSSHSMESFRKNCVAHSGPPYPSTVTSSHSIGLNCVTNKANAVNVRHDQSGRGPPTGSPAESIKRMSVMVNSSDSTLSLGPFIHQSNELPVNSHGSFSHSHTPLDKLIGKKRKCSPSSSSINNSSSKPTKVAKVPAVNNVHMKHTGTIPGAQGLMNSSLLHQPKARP
UniProt Q8NEM7: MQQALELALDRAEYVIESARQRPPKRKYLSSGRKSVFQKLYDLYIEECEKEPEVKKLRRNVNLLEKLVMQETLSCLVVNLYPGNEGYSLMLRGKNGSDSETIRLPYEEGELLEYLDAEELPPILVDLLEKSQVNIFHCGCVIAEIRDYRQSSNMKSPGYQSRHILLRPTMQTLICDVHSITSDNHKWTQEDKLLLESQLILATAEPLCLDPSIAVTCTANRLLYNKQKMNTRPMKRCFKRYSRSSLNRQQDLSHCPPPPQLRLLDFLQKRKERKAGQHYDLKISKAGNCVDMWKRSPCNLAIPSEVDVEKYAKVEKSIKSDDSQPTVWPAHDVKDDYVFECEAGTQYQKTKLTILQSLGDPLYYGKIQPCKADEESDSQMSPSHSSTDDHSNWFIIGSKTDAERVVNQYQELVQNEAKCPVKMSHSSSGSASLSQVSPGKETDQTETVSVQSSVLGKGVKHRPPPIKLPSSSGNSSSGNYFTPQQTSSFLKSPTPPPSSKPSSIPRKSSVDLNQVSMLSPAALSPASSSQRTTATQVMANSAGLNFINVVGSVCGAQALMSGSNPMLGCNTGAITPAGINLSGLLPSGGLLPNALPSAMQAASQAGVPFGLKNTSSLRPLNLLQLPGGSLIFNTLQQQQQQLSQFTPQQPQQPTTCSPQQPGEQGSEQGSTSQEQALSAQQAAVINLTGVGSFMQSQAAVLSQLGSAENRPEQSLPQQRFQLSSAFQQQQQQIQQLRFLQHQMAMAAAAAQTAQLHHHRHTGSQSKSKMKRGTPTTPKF
UniProt P21127: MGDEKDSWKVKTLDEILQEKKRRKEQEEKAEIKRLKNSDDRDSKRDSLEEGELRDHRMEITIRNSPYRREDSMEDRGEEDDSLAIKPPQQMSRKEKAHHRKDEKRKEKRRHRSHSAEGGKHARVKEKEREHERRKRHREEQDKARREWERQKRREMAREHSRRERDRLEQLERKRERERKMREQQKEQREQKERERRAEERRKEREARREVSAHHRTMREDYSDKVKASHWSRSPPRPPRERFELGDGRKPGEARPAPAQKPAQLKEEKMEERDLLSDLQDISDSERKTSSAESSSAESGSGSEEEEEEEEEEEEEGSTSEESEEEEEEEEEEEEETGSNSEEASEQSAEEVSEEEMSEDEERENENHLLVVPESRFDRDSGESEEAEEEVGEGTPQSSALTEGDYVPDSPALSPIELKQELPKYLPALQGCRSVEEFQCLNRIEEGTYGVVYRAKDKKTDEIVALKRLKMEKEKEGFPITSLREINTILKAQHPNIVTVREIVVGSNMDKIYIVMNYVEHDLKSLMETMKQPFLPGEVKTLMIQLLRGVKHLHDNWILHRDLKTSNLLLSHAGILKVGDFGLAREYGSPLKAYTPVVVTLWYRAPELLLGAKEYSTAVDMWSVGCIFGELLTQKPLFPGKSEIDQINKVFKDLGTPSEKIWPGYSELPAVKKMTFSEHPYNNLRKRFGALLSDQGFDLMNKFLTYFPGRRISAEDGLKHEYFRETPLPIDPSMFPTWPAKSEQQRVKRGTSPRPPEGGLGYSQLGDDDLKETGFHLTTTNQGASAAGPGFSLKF

Among the data in paper PMC12059209 are binding values, retold here.

To fix the notation:
B1: ENY2 (protein, UniProt Q9NPA8 1-101)
chain: MVVSKMNKDAQMRAAINQKLIETGERERLKELLRAKLIECGWKDQLKAHCKEVIKEKGLEHVTVDDLVAEITPKGRALVPDSVKKELLQRIRTFLAQHASL

The target in this assay is T1, Flag-USP22 (ubiquitin-specific protease 22, full length) (UniProt Q9UPT9).
T1 sequence: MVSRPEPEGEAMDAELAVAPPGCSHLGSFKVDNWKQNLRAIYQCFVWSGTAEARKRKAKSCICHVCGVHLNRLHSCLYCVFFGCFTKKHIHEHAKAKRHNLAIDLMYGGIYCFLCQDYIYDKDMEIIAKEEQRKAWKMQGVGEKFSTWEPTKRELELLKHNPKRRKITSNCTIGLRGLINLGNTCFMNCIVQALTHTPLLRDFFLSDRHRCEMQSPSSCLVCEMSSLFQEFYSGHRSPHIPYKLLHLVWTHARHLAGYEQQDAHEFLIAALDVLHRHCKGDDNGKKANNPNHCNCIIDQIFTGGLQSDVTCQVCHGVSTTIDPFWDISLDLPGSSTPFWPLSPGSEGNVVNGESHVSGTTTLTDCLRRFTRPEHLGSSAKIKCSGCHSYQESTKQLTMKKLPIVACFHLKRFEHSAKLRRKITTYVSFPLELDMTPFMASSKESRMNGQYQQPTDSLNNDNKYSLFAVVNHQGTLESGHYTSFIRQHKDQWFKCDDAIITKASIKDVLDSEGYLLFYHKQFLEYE
Description: affinity purification with mass spectrometry; lysate of HEK-293FT cells transfected with Flag-USP22 (48 h) on anti-Flag M2 gel at 4°C overnight; 50 mM Tris-HCl pH 7.4, 150 mM NaCl, 1 mM EDTA, 0.5% Triton X-100; eluted with Flag peptide, SDS-PAGE, silver stain, bands analysed by LC-MS.
With ATXN7 (from UniProt O15265 1-892), the binding entry was “binds”.
With SUPT20H (from UniProt Q8NEM7 1-779), the binding result was “binds”.
The result for “cyclin-dependent kinase 11B (CDK11B), endogenous (from UniProt P21127 1-795)” reads “binds”.
In the case of B1, the binding result is given as “binds”.
